Test results taken from patent publication US20250154240A1, “ANTI-HUMAN CXCL1 ANTIBODY” (CHIOME BIOSCIENCE INC., priority 2022, published 2025).
These are yes or no findings as the source states them, for the method shown. Binding calls can cover weak binding; strength is not graded here.

B1: 5A-5E11 (antibody, V domains shown)
VH: QVQLQQSGAELVRPGSSVKISCKASGYAFSDYWMNWVKQRPGQGLEWIGQIYPGDGDTNYNGKFKGKGTLTADKSSSTAYMQLNSLTSEDSAVYFCARERDYDVAMDYWGQGTSVTVSS
VL: DIQMTQSPSSLSASLGGKVTITCKASQDINKYIAWFQHKPGKGPRLVIHYTSILQPGIPSRFSGVGSGRDYSFSIRNLEPEDIATYYCLQYDNLPWTFGGGTKLEIK
B2: 4A-2F7 (antibody, V domains shown)
VH: QVTLKESGPGILKPSQTLSLTCSFSGFSLSTSGMGVDWIRQPSGKGLEWLAHIWWDDDKYYNPSLKSQLTISKDTSRNQVFLKITSVDTADTATYYCARSYGYDMDYYAMDYWGQGTSVTVSS
VL: DIQMTQSPSSLSASLGERVSLTCRASQEISGYLSWLQQKPDGTIKRLIYAASTLDSGVPKRFSGSRSGSDYSLTISSLESEDFADYYCLQYASYPPWTFGGGTKLEIK
B3: 028-8-12 (antibody, V domains shown)
VH: EVQLLESGGGLVQPGGSLRLSCAASGFTFSELSMSWVRQAPGKGLEWVSAISGSGGSTYYADSVKGRFTISRDNSKNTLYLQMNSLRAEDTAVYYCAREGGRLEPYYYYYAMDVWGQGTPVTVSS
VL: DIQMTQSPSSLSASVGDRVTITCRASQSISDNLHWYQQKPGKAPKLLIYDASNLESGVPSRFSGSGSGTDFTLTINSLQPEDFATYYCQQYYSTPLTFGQGTKLEIK
B4: 1A-7H10 (antibody, V domains shown)
VH: QVQLKESGPVLVAPSQSLSITCSVSGFSSTTYGVHWVRQPPGQGLEWLGVIWAGGSTNYNSALMSRLSISKDNSKSQVFLKMNSLQTDDTAMYYCATQYHYPFAYWGQGTLVTVSA
VL: NIVMTQSPKSMSMSVGERVTLSCKASENVGIYVSWYQQKPEQSPKLMIYGASNRNTGVPDRFTGSGSATDFTLTISSVQAEDLADYYCGQSYSYPLTFGAGTKLELK

target: cynomolgus monkey CXCL1 protein (cynomolgus monkey); assay: ELISA, CyCXCL1 immobilised on plate; ∘ = absorbance to CyCXCL1 80% or more of absorbance to HuCXCL1

binding, binds:
B1
B2
B3
B4
